The list shows a part of the results.
Experiments:
Assay in all cases: log2 fold change, soluble protein after heating vs DMSO (PISA); higher = thermal stabilisation; K562 lysate, 10 uM; active = over 0.2 and 3.5 SD of the protein, either way, in both replicates (recomputed)
ibrutinib = compound: C=CC(=O)N1CCC[C@@H](n2nc(-c3ccc(Oc4ccccc4)cc3)c3c(N)ncnc32)C1 [ibrutinib]
Outline: (§1)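 Following dounce homogenisation of K562 pellets in PBS pH 7.4 with 1 mM MgCl2, crude extract at 1 mg/mL protein was incubated for 30 min with 10 μM compound. Aliquots were then heated for 3 min over 48°C-58°C and pooled, NP-40 was added to 0.5% at 4°C, and soluble protein was recovered as the supernatant at 21,000xg for 90 min. Channel-sum-equalised TMTpro 16plex LC-MS/MS quantified this protein. Each value, from duplicates, is a log-two fold change in thermal stability relative to solvent controls.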

By UniProt entry, the sequences of proteins in these tests, tags left out. Where a name states a change or a piece, a line headed by the entry shows the natural chain unless it says otherwise.
UniProt Q9Y2K1: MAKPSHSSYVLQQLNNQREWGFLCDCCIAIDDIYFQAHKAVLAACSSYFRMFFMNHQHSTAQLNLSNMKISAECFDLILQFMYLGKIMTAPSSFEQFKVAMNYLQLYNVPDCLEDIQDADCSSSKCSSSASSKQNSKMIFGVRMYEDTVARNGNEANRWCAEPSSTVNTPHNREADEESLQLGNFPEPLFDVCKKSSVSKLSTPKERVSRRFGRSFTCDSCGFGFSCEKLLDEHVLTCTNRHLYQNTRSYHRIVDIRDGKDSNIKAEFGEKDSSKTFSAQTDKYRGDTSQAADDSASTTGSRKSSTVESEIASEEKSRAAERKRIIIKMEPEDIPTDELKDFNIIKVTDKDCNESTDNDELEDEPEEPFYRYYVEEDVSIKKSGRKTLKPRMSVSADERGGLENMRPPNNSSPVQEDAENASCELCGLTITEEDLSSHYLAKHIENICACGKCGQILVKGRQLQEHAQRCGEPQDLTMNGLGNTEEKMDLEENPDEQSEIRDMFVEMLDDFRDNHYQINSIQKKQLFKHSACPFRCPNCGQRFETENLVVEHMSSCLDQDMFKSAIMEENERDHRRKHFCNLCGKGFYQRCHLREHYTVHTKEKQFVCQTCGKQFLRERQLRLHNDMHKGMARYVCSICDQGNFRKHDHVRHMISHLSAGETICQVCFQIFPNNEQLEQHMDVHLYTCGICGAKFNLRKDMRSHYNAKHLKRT
UniProt Q8WW38: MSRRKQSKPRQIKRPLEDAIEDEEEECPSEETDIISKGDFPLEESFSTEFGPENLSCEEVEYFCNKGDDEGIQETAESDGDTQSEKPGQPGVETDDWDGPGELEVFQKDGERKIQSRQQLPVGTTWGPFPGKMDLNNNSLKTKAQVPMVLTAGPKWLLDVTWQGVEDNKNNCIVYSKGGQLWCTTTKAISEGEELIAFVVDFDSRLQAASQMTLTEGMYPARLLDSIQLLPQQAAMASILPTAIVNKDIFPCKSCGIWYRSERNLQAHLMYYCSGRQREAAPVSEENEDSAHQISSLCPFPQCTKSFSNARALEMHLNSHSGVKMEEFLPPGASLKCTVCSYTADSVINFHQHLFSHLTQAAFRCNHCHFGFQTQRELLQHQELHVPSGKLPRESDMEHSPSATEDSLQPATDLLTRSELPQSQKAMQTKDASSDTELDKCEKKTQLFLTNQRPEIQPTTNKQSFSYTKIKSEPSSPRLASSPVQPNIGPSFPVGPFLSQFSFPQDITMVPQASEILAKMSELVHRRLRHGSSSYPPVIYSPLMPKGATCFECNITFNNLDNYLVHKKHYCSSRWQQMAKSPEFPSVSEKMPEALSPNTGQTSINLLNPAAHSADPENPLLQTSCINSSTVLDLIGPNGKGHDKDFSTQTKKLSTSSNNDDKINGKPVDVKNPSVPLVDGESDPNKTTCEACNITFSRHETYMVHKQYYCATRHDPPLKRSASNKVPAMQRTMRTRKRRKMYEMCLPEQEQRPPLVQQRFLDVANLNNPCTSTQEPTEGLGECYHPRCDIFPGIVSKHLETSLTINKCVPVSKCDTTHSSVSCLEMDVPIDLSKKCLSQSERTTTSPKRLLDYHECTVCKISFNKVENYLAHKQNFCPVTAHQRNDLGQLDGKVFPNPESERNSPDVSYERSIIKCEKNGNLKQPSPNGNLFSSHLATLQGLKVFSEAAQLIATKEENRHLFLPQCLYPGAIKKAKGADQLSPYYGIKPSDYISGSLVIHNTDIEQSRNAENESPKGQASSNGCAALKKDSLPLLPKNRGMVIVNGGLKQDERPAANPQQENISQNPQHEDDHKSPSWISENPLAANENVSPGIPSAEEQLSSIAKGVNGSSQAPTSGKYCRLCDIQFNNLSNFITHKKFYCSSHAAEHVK
UniProt O43543: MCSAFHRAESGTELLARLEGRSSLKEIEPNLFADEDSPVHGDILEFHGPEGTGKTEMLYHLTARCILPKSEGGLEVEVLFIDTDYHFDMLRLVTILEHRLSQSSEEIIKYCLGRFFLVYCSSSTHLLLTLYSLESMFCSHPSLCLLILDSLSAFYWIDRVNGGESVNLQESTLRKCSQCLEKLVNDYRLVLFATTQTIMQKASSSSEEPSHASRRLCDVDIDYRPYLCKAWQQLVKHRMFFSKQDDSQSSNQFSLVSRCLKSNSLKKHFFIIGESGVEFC
UniProt Q8N680: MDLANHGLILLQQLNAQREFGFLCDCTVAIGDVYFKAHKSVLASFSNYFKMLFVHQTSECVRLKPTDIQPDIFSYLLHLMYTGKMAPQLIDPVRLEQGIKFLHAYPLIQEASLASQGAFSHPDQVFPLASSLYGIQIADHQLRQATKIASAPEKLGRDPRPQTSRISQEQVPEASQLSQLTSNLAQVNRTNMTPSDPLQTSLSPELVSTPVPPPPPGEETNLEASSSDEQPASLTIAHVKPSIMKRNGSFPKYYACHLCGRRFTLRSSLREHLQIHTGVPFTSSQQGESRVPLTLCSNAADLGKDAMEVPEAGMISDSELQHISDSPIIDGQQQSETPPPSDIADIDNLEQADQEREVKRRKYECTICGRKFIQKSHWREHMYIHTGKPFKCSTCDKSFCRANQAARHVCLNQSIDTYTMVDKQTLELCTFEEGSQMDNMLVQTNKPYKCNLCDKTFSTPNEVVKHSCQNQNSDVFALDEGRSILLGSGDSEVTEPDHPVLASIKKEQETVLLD
UniProt Q9H869: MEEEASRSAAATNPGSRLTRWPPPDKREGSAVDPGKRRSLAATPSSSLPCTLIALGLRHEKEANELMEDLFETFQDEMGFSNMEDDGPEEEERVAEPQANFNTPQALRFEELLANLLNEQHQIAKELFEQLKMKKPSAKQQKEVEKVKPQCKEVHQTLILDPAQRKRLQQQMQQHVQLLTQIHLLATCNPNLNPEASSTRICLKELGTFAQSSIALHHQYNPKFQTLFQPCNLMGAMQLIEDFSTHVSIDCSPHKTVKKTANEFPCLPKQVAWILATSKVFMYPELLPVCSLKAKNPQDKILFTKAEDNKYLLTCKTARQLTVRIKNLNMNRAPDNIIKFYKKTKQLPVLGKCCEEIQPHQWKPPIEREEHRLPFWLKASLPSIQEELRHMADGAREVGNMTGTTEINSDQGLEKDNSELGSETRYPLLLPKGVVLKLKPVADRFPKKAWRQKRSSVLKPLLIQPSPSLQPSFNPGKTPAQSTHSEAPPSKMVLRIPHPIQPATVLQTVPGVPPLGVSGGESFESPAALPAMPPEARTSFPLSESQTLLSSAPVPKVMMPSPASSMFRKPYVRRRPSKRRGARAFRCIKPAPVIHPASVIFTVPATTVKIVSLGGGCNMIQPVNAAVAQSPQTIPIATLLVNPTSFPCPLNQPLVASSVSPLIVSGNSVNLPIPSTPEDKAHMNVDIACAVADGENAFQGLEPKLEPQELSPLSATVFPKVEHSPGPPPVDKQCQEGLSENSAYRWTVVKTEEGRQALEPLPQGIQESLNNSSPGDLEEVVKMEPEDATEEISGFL
UniProt P10074: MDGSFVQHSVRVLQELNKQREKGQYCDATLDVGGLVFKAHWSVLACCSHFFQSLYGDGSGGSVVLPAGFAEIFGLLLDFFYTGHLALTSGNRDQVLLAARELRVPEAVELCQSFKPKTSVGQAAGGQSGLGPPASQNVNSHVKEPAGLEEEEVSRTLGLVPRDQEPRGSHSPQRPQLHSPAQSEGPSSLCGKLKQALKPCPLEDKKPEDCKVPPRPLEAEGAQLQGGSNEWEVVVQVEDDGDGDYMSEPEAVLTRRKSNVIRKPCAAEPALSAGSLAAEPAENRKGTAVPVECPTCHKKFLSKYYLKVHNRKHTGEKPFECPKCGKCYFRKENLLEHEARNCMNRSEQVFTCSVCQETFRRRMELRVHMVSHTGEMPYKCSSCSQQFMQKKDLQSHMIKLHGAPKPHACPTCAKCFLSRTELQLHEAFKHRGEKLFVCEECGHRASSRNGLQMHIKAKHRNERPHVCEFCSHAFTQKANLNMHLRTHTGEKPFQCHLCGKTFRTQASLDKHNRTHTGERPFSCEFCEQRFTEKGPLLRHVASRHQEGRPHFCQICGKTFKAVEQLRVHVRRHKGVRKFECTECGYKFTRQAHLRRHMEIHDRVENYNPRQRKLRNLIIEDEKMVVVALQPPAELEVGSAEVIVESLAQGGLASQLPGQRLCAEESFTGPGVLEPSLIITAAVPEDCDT
UniProt C9J5V9: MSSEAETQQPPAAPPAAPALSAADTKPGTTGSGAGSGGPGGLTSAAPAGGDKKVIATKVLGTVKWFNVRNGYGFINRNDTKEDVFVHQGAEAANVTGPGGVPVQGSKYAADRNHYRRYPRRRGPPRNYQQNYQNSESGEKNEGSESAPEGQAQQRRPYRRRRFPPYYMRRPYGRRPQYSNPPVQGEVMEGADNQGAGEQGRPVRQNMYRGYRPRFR
UniProt Q8IZN3: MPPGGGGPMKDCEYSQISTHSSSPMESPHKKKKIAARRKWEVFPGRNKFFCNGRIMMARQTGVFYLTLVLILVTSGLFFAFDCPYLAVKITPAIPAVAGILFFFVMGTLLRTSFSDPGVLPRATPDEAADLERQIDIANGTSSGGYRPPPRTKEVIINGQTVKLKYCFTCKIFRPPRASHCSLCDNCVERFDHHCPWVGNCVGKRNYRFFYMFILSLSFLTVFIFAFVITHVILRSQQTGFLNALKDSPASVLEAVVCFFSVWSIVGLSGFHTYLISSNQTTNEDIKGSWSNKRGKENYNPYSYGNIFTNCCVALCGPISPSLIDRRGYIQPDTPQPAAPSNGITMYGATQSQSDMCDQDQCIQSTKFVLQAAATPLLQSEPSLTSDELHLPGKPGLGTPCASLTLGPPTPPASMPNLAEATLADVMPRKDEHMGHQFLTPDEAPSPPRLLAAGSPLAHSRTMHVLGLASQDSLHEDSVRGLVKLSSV
UniProt Q9Y397: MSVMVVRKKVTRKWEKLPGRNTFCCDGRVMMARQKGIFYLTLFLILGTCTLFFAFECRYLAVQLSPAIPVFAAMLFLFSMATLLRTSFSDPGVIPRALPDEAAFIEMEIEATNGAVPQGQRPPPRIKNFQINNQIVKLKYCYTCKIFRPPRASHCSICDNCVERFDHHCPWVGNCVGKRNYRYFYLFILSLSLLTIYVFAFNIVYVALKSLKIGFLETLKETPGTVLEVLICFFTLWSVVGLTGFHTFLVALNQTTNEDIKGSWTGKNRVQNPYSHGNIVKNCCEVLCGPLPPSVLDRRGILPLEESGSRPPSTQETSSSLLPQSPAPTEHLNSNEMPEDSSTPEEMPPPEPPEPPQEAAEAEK
UniProt Q9NQZ6: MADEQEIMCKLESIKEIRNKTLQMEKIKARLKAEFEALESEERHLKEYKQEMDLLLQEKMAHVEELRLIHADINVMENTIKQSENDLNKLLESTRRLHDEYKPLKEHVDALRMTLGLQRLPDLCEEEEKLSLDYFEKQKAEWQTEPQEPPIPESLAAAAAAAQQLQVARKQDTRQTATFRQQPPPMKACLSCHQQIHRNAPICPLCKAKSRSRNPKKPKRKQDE
UniProt Q5TC79: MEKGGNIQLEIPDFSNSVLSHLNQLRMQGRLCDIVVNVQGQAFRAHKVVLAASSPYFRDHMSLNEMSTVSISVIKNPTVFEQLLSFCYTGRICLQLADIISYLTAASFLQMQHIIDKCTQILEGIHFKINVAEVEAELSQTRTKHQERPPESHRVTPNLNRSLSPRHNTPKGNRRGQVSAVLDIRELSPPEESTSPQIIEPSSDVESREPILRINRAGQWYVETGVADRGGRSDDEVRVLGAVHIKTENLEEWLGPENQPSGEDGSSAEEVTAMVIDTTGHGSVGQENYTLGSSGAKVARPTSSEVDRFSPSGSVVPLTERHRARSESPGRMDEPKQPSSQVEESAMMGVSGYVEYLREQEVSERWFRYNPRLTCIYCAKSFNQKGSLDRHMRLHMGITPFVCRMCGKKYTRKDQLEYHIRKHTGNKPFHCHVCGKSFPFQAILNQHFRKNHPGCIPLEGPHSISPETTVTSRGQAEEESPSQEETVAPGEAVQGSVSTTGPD
UniProt Q8IUH5: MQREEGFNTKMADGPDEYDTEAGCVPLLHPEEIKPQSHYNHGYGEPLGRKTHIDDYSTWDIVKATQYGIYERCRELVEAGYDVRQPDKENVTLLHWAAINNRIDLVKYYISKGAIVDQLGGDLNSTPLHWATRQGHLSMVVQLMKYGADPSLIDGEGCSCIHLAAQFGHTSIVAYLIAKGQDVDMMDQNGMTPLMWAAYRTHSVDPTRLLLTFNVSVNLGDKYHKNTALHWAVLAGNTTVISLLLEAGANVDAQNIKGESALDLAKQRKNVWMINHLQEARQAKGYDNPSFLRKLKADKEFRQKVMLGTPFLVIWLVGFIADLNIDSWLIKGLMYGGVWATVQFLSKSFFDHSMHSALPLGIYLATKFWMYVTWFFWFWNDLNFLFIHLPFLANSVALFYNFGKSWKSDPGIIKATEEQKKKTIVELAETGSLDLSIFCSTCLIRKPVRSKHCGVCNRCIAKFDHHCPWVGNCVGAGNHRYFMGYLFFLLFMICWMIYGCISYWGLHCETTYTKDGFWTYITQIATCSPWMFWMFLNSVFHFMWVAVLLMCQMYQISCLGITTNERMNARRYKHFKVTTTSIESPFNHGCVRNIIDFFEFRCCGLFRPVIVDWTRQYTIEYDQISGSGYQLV

[1] = compound: CC(=O)c1cnc2ccc(-c3cc(Cl)c(O)c(Cl)c3)nc2c1N[C@H]1CC[C@H](CN(C)C)CC1
Outline: as §1

ralimetinib = compound: CC(C)(C)Cn1c(N)nc2ccc(-c3[nH]c(C(C)(C)C)nc3-c3ccc(F)cc3)nc21 [ralimetinib]
Outline: as §1

[2] = compound: CC(C)(O)CC(=O)NCCn1ccc2ncnc(Nc3ccc(Oc4cccc(C(F)(F)F)c4)c(Cl)c3)c21
Outline: as §1

[3] = compound: CC(C)C1=C2N=C(C=C(N2N=C1)NCC3=CC=CC=C3)NCCCCCCN
Outline: as §1

[4] = compound: CC1=C(C=C(C=C1)NC(=O)C2=CC(=CC=C2)N(C)C)NC(=O)C3=CC=C(C=C3)O
Outline: as §1

[5] = compound: CC1=CC=C(C=C1)SC2=C3C=C(SC3=CN=C2)C(=O)N
Outline: as §1

[6] = compound: CCCS(=O)(=O)Nc1ccc(F)c(C(=O)c2c[nH]c3ncc(Cl)cc23)c1F
Outline: as §1

barasertib = compound: CCN(CCCOc1ccc2c(Nc3cc(CC(=O)Nc4cccc(F)c4)[nH]n3)ncnc2c1)CCOP(=O)(O)O [barasertib]
Outline: as §1

[7] = compound: CC[C@@H]1C(=O)N(C)c2cnc(Nc3ccc(C(=O)NC4CCN(C)CC4)cc3OC)nc2N1C1CCCC1
Outline: as §1

volasertib = compound: CC[C@@H]1C(=O)N(C)c2cnc(Nc3ccc(C(=O)N[C@H]4CC[C@H](N5CCN(CC6CC6)CC5)CC4)cc3OC)nc2N1C(C)C [volasertib]
Outline: as §1

[8] = compound: CCn1c(C(=O)N(C2CC2)C2CC2)cc2c3c(ncn3C)c(Nc3cc(C)n(C)n3)nc21
Outline: as §1

[9] = compound: CCn1cc(-c2ccnc3[nH]c(-c4cccc(CN(C)C)c4)cc23)c(-c2ccc(NC(=O)N(C)C)cc2)n1
Outline: as §1

[10] = compound: CN1CCC(CNc2ccc3ncc(-c4cccc(OC(F)(F)F)c4)n3n2)CC1
Outline: as §1

[11] = compound: CC1=C(C2=C(C=C1)C(=O)C3=CC=CC=C3N2CCCN)C
Outline: as §1

vemurafenib = compound: CCCS(=O)(=O)Nc1ccc(F)c(C(=O)c2c[nH]c3ncc(-c4ccc(Cl)cc4)cc23)c1F [vemurafenib]
Outline: as §1

saracatinib = compound: CN1CCN(CCOc2cc(OC3CCOCC3)c3c(Nc4c(Cl)ccc5c4OCO5)ncnc3c2)CC1 [saracatinib]
Outline: as §1

[12] = compound: CC1=C(C=C(C=C1)NC(=O)C2=CC(=CC=C2)C(C)(C)C#N)NC3=CC4=C(C=C3)N=CN(C4=O)C
Outline: as §1

sotrastaurin = compound: CN1CCN(c2nc(C3=C(c4c[nH]c5ccccc45)C(=O)NC3=O)c3ccccc3n2)CC1 [sotrastaurin]
Outline: as §1

[13] = compound: CC1=C(C(CC(=O)N1)C2=CC=C(C=C2)C(F)(F)F)C(=O)NC3=C(C=C4C(=C3)C=NN4)F
Outline: as §1

Measured: log2 fold change

ZBTB1 (UniProt Q9Y2K1)
inactive: ibrutinib -0.061 | [1] -0.137 | ralimetinib 0.032 | [2] -0.106 | [3] 0.182 | [4] 0.051 | [5] 0.102 | [6] -0.014 | barasertib 0.197 | [7] 0.078 | volasertib 0.256 | [8] -0.063 | [9] -0.007 | [10] -0.087

XRCC1 (UniProt F5H8D7)
inactive: ibrutinib -0.118 | [3] -0.171 | [11] 0.244 | vemurafenib 0.147 | barasertib -0.051 | [7] -0.101 | saracatinib -0.121

ZFPM2 (UniProt Q8WW38)
inactive: ibrutinib -0.128 | [3] 0.094 | [11] -0.001 | [12] 0 | vemurafenib -0.06 | barasertib -0.334 | [7] -0.111 | [9] -0.024 | [10] -0.004 | saracatinib 0.102 | sotrastaurin 0.095

XRCC2 (UniProt O43543)
inactive: ibrutinib 0.041 | [13] -0.202 | [11] 0.125 | [12] 0.112 | barasertib -0.014 | [9] -0.091 | [10] -0.079 | saracatinib 0.014 | sotrastaurin -0.049

YWHAZ (UniProt E7EX29)
inactive: ibrutinib 0.028 | [1] -0.014 | [5] -0.109 | [6] -0.178 | barasertib 0.148 | [7] -0.102 | volasertib -0.027

ZC3H7A (UniProt Q8IWR0)
inactive: ibrutinib -0.037 | ralimetinib 0.023 | [2] 0.003 | [3] 0.012 | [13] -0.021 | [11] 0.051 | [12] -0.008 | [4] 0.053 | vemurafenib -0.021 | barasertib 0.004 | [7] 0.057 | [8] 0.057 | [9] -0.121 | [10] -0.229 | saracatinib -0.044 | sotrastaurin -0.046

ZBTB2 (UniProt Q8N680)
inactive: ibrutinib -0.241 | ralimetinib -0.034 | [2] -0.07 | [3] -0.043 | [13] -0.066 | [11] -0.041 | [12] -0.025 | [4] -0.02 | vemurafenib 0.05 | barasertib -0.198 | [7] 0.061 | [8] 0.023 | [9] 0.139 | [10] -0.062 | saracatinib 0.004 | sotrastaurin 0.063

ZC3H10 (UniProt Q96K80)
inactive: ibrutinib -0.047 | [11] -0.012 | [12] 0.322 | barasertib 0.012 | saracatinib -0.011 | sotrastaurin -0.048

YY1AP1 isoform 9 (UniProt Q9H869)
inactive: ralimetinib -0.09 | [2] -0.087 | [3] 0.455 | [11] 0.091 | [12] 0.097 | [4] 0.138 | [7] -0.242 | [8] 0.044 | [9] 0.337 | [10] -0.112 | saracatinib -0.28 | sotrastaurin 0.018

ZBTB39 (UniProt O15060)
inactive: ralimetinib -0.062 | [2] 0.081 | [11] 0.03 | [4] 0.023 | [8] -0.021 | saracatinib -0.138

XRCC5 (UniProt C9JZ81)
inactive: [1] 0.095 | [13] -0.13 | [5] -0.141 | [6] 0.009 | volasertib -0.035

ZBTB48 (UniProt P10074)
inactive: [11] -0.086 | vemurafenib -0.07 | saracatinib 0.005

YBX1 (UniProt C9J5V9)
inactive: [12] -0.008 | [9] -0.092 | [10] 0.059 | sotrastaurin -0.043

Fetched one by one from the entries so far, 2 records:
ZBTB39 (UniProt O15060)
inactive: ralimetinib -0.062 | [2] 0.081 | [11] 0.03 | [4] 0.023 | [8] -0.021 | saracatinib -0.138

XRCC5 (UniProt C9JZ81)
inactive: [1] 0.095 | [13] -0.13 | [5] -0.141 | [6] 0.009 | volasertib -0.035

(further entries)

ZDHHC14 (UniProt Q8IZN3)
inactive: [1] 0.01 | ralimetinib 0.037 | [2] -0.16 | [13] -0.001 | [11] 0.025 | [12] -0.035 | [4] 0.161 | [5] -0.021 | vemurafenib 0.102 | [6] 0.033 | [7] 0.024 | volasertib 0.012 | [8] -0.075 | [9] 0.009 | [10] 0.037 | saracatinib 0.01 | sotrastaurin -0.068

ZDHHC9 (UniProt Q9Y397)
inactive: ralimetinib -0.066 | [2] -0.158 | [3] -0.222 | [12] 0.101 | [4] 0.101 | [8] -0.081 | [9] -0.055 | [10] -0.125 | sotrastaurin 0.035

XPOT (UniProt F5GYW6)
inactive: [1] -0.027 | [5] 0.041 | [6] -0.204 | volasertib -0.112

ZC4H2 (UniProt Q9NQZ6)
inactive: [12] 0.182 | sotrastaurin -0.42

ZDHHC12 isoform 3 (UniProt Q96GR4)
inactive: [12] 0.03 | sotrastaurin 0.039

ZBTB37 (UniProt Q5TC79)
inactive: ralimetinib 0.134 | [2] -0.014 | [12] -0.034 | [4] -0.147 | [8] 0.051 | sotrastaurin 0.167

ZDHHC17 (UniProt Q8IUH5)
inactive: [1] -0.063 | ralimetinib 0.077 | [2] 0.047 | [13] -0.001 | [11] 0.161 | [12] -0.171 | [4] -0.067 | [5] -0.032 | vemurafenib 0.058 | [6] 0.047 | [7] 0.077 | volasertib -0.071 | [8] 0.166 | [9] -0.346 | [10] 0.141 | saracatinib 0.205 | sotrastaurin 0.117

— the supplement of paper PMC10849652
